PubChem BioAssay AID504786 | Drosophila RNAi Screening Center | 2011

Test: 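Fly genes required for HIF-dependent transcription when hypoxia is mimicked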 (primary screen)
Cell system: Drosophila S2 cells with a stable HIF luciferase reporter
Reagent: long dsRNA against Drosophila genes, about 0.2 µg dsRNA per well of a 384-well plate
Duration: three days of knock-down, then 20 h of DFO before reading
Treatment: desferrioxamine (DFO) at 100 µM, an iron chelator that mimics hypoxia, for 20 h
Measurement: 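HIF reporter luminescence in cells given 100 µM DFO for 20 h, using the mouse ldh-a hypoxia-response element, scored as per-plate z-scores; higher means greater loss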
Reading the numbers: z-score: higher = stronger loss of HIF reporter signal
The deposit covers about 21,000 reagents; this is a random part of those with a known target gene and a result. 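Primary screen; positive scores mean lost reporter signal, so the sign may be inverted from the usual convention.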 A plus sign joins genes that one reagent is predicted to hit.

The opening 9 records, to show the layout:
no.	predicted target	dsRNA	z-score, replicate 1	z-score, replicate 2	z-score, replicate 3	z-score, replicate 4
1	CG32533	DRSC19443	-0.4	-0.7		
2	CG32533	DRSC19553	-0.4	-0.5		
3	Nup154 (Nucleoporin 154kD)	DRSC03384	0.5	0.3		
4	Notum	DRSC09959	-0.2	0.1		
5	smo (smoothened)	DRSC00837	-0.3	-0.1		
6	Mcm3 (Minichromosome maintenance 3)	DRSC18679	-0.1	0.1		
7	hrm (hermes)	DRSC04853	0	-0.8		
8	zetaCOP (Coat Protein (coatomer) zeta)	DRSC11412	-0.1	1.2		
9	PsGEF (Protostome-specific GEF)	DRSC18596	-0.5	0.6		

Main list, repeating the preview:
no.	predicted target	dsRNA	z-score, replicate 1	z-score, replicate 2	z-score, replicate 3	z-score, replicate 4
1	CG32533	DRSC19443	-0.4	-0.7		
2	CG32533	DRSC19553	-0.4	-0.5		
3	Nup154 (Nucleoporin 154kD)	DRSC03384	0.5	0.3		
4	Notum	DRSC09959	-0.2	0.1		
5	smo (smoothened)	DRSC00837	-0.3	-0.1		
6	Mcm3 (Minichromosome maintenance 3)	DRSC18679	-0.1	0.1		
7	hrm (hermes)	DRSC04853	0	-0.8		
8	zetaCOP (Coat Protein (coatomer) zeta)	DRSC11412	-0.1	1.2		
9	PsGEF (Protostome-specific GEF)	DRSC18596	-0.5	0.6		
10	Sprn (Spermitin)	DRSC10132	-0.3	-0.3		
11	tacc (transforming acidic coiled-coil protein)	DRSC12019	0	0.6		
12	tacc (transforming acidic coiled-coil protein)	DRSC12388	-0.3	-0.3		
13	msl-1 (male-specific lethal 1)	DRSC03573	0.5	1		
14	CG34280	DRSC13229	-0.4	0		
15	CarT (Carcinine transporter)	DRSC03196	-0.2	-0.3		
16	CG12035	DRSC08238	-0.2	-0.5		
17	CG2218	DRSC15428	-0.3	-0.2		
18	Alg10 (ALG10 alpha-1,2-glucosyltransferase)	DRSC10892	-0.4	-0.4		
19	hig (hikaru genki)	DRSC07628	-0.3	0.3	-0.3	-0.2
20	mir-210 (retired record)	DRSC19230	-0.2	-0.1		
21	RIC-3 (RIC3 acetylcholine receptor chaperone)	DRSC04243	-0.3	-0.4		
22	RIC-3 (RIC3 acetylcholine receptor chaperone)	DRSC04543	-0.1	-0.2		
23	ATPsyngamma (ATP synthase, gamma subunit)	DRSC14094	1.8	1		
24	Boh2 (Buddy of Hmr 2)	DRSC02777	-0.2	0		
25	Hmt-1 (Heavy metal tolerance factor 1)	DRSC15555	-0.2	-0.6		
26	CG11857	DRSC14411	-0.9	-0.5		
27	CG3253	DRSC04350	-0.1	-0.1		
28	CG8010	DRSC20072	-0.1	0.4		
29	CG31688 + CG31687	DRSC02116	0.9	1.6		
30	CG5516	DRSC15826	0.2	-0.3		
31	Tnpo-SR (Transportin-Serine/Arginine rich)	DRSC00546	4.4	3.7		
32	Kr (Kruppel)	DRSC04622	-0.2	0.4		
33	lectin-24Db	DRSC00553	-0.3	-0.3		
34	Mccc2 (Methylcrotonoyl-CoA carboxylase 2)	DRSC04987	-0.2	-0.2		
35	stmA (stambha A)	DRSC05120	-0.1	-0.3		
36	stmA (stambha A)	DRSC07593	-0.2	-0.2		
37	CG14857	DRSC14981	-0.3	0.6		
38	MAPk-Ak2 (MAP kinase activated protein-kinase-2)	DRSC18678	0	0.2		
39	eIF3a (eukaryotic translation initiation factor 3 subunit a)	DRSC12339	7.4	5.4		
40	CG5276	DRSC15759	-0.4	-0.3		
41	CG14731	DRSC14952	-0.4	-0.1		
42	Gem4b + Gem4c	DRSC17294	-0.3	-0.2		
43	CG15471	DRSC18054	-0.3	-0.3		
44	rec (recombination-defective)	DRSC14998	-0.2	-0.2		
45	rec (recombination-defective)	DRSC15656	-0.3	-0.6		
46	CG9517 (retired record)	DRSC20192	-0.2	-1.1		
47	CG9517 (retired record)	DRSC20193	-0.2	-0.3		
48	CG4483	DRSC10426	-0.3	-0.1		
49	CG12546	DRSC11676	0.3	0.1		
50	CG7512	DRSC10863	-0.1	-0.1		
51	CG6051	DRSC15956	0.1	-0.3		
52	Sry-alpha (Serendipity alpha)	DRSC16867	0.1	-0.3	0.1	-0.2
53	Jhbp11 (Juvenile hormone binding protein 11)	DRSC15183	-0.4	-0.5		
54	CG12567	DRSC20845	-0.2	-0.1		
55	Mzt1 (Mitotic spindle organizing protein 1)	DRSC07979	-0.2	0		
56	Smug	DRSC15762	-0.3	-0.3		
57	CG5850	DRSC02905	-0.4	-0.6		
58	Oatp58Da (Organic anion transporting polypeptide 58Da)	DRSC04365	-0.1	-0.3		
59	Gbeta76C (G protein beta subunit 76C)	DRSC11174	-0.2	0.3		
60	CG11664	DRSC18650	-0.4	-0.4		
61	CG11893	DRSC14429	-0.5	-0.7		
62	Cdep (Chondrocyte-derived ezrin-like domain containing protein)	DRSC12028	-0.3	-0.4		
63	Cdep (Chondrocyte-derived ezrin-like domain containing protein)	DRSC12220	-0.4	-0.4		
64	Cdep (Chondrocyte-derived ezrin-like domain containing protein)	DRSC12291	-0.2	0.1		
65	Tmtc3 (Transmembrane O-mannosyltransferase targeting cadherins 3)	DRSC04444	-0.1	0.5		
66	Abi (Abelson interacting protein)	DRSC14099	0.1	0.6		
67	CG3528	DRSC00611	-0.2	0.9		
68	CG42717	DRSC09411	0	-0.1		
69	CG34199	DRSC05867	0.4	0		
70	CG5758	DRSC02889	-0.3	2.2	0.4	2.5
71	CG5758	DRSC02890	-0.3	0.2		
72	CG32628 (retired record)	DRSC19405	-0.2	0.3		
73	RpS14b (Ribosomal protein S14b)	DRSC18711	8.5	4.4		
74	CG4945	DRSC06904	-0.3	-0.4		
75	alpha-Est7 (alpha-Esterase-7)	DRSC12619	-0.7	-0.3		
76	Arfip (Arfaptin)	DRSC15179	0.1	-0.1		
77	CG3961	DRSC10390	-0.4	-0.3		
78	CG3961	DRSC10391	0.1	-0.5		
79	CG30195	DRSC04155	-0.3	-0.3		
80	Dhc93AB (Dynein heavy chain at 93AB)	DRSC16644	-0.1	-0.5		
81	Gpdh3 (Glycerol-3-phosphate dehydrogenase 3)	DRSC13561	-0.1	-0.3		
82	Gpdh3 (Glycerol-3-phosphate dehydrogenase 3)	DRSC15325	-1	-0.7		
83	TotZ (Turandot Z)	DRSC13450	0.4	-0.3		
